Values of other authors in patent US20210330624A1, “COMPOSITIONS AND METHODS FOR TREATING OR PREVENTING DISEASES AND/OR DISORDERS CAUSED BY EXPOSURE TO AIR POLLUTION” (Amarin Pharmaceuticals Ireland Limited, priority 2018, published 2021).
For at least one compound, name, drawing or mass did not settle the structure.

Details: previous data; standard deviation of 15%; patients

## CC/C=C\C/C=C\C/C=C\C/C=C\C/C=C\CCCC(=O)OCC [>96% E-EPA, ethyl eicosapentaenoate]
  difference in percent change from baseline in fasting LDL-C between study drug and placebo: 2.2%
